Experimental data: the supplement of paper PMC12067093, “Discovery and optimisation of a covalent ligand for TRIM25 and its application to targeted protein ubiquitination” (Chemical Science, 2025)
The list shows a part of the results.

The chains behind the UniProt entries cited, without tags or fusion partners. Where a name states a change or a piece, a line headed by the entry shows the natural chain unless it says otherwise.
UniProt Q6P9B9, whole entry, looked up: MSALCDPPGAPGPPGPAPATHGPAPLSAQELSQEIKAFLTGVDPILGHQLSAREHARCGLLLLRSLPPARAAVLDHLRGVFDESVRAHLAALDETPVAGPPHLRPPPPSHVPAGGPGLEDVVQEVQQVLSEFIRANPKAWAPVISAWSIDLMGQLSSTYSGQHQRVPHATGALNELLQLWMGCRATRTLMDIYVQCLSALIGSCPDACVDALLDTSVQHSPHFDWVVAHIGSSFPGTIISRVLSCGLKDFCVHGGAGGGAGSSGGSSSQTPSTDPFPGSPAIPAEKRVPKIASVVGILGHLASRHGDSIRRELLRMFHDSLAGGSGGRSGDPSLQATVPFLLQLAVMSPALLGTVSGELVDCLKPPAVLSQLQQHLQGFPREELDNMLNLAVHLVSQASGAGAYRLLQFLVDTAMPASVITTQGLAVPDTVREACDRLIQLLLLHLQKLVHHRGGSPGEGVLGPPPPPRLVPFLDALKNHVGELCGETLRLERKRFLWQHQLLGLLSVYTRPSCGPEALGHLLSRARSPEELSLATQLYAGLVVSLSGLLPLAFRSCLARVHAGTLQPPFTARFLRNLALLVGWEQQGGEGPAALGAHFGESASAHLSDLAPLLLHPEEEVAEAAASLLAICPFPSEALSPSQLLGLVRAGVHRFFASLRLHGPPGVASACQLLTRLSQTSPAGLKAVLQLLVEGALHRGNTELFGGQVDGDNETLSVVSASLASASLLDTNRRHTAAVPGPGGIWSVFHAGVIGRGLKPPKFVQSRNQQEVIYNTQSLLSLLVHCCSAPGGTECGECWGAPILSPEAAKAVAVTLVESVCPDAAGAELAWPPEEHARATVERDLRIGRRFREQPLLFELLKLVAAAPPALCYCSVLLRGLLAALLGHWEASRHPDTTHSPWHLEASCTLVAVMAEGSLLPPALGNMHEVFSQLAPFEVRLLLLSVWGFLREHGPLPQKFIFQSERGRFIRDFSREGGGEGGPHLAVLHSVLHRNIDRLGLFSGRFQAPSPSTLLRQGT
UniProt Q9H0H0, whole entry, looked up: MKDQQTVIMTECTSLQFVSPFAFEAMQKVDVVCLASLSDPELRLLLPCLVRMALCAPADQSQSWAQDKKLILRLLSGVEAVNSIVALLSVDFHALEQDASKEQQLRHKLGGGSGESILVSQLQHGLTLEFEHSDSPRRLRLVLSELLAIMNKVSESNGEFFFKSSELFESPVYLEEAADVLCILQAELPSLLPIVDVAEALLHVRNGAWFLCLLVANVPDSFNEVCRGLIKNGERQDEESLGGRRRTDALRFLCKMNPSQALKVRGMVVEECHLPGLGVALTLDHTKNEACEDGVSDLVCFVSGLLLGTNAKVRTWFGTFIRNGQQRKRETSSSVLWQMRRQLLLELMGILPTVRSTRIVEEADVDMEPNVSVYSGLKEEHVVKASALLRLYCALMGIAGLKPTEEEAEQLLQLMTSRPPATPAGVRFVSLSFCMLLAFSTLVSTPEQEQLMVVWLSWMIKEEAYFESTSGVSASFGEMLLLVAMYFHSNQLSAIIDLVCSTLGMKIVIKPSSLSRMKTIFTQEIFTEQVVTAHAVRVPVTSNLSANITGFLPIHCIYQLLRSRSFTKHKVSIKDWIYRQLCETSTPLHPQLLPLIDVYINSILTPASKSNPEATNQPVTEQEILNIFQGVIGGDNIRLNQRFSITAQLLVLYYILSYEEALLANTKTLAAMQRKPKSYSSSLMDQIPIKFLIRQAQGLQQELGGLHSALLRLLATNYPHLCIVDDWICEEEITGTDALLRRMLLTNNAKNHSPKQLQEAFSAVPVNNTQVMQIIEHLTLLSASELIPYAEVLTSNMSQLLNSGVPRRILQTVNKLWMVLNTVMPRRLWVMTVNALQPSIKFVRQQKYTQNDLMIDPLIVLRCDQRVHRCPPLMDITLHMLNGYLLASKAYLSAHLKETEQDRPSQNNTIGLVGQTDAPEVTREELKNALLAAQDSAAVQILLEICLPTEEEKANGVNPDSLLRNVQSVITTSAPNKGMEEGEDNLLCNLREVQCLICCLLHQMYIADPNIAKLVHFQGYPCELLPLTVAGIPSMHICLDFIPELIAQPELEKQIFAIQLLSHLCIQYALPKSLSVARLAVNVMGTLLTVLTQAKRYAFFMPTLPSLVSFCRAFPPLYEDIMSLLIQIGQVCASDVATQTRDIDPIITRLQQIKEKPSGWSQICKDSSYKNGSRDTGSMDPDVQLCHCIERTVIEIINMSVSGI
UniProt O95373, whole entry, looked up: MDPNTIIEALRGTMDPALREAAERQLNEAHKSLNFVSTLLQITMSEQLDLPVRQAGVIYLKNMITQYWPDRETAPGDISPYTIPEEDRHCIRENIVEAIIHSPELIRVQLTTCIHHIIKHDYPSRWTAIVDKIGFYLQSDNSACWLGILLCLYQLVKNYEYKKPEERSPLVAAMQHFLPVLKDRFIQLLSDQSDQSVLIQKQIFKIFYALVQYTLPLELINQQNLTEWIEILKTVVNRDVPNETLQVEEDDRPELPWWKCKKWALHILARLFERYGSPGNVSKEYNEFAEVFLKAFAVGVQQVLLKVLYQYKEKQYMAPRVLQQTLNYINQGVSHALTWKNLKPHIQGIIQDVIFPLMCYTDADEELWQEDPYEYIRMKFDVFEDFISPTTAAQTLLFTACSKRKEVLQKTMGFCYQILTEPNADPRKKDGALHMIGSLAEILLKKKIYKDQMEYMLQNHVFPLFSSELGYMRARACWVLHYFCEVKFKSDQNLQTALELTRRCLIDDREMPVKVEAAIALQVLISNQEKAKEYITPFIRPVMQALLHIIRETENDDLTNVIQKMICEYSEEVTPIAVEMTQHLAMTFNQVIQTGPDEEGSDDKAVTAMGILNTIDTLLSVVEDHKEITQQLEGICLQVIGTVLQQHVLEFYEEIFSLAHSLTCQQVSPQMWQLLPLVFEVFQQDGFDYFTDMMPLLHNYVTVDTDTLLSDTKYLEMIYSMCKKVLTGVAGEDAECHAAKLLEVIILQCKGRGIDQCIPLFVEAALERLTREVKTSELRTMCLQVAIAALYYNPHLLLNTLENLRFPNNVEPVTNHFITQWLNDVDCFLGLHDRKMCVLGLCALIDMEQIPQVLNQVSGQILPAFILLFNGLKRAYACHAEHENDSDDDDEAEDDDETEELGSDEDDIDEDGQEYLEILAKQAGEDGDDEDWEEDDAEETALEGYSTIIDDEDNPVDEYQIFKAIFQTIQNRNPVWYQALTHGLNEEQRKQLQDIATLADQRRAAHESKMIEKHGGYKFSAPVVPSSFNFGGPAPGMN
UniProt Q92835: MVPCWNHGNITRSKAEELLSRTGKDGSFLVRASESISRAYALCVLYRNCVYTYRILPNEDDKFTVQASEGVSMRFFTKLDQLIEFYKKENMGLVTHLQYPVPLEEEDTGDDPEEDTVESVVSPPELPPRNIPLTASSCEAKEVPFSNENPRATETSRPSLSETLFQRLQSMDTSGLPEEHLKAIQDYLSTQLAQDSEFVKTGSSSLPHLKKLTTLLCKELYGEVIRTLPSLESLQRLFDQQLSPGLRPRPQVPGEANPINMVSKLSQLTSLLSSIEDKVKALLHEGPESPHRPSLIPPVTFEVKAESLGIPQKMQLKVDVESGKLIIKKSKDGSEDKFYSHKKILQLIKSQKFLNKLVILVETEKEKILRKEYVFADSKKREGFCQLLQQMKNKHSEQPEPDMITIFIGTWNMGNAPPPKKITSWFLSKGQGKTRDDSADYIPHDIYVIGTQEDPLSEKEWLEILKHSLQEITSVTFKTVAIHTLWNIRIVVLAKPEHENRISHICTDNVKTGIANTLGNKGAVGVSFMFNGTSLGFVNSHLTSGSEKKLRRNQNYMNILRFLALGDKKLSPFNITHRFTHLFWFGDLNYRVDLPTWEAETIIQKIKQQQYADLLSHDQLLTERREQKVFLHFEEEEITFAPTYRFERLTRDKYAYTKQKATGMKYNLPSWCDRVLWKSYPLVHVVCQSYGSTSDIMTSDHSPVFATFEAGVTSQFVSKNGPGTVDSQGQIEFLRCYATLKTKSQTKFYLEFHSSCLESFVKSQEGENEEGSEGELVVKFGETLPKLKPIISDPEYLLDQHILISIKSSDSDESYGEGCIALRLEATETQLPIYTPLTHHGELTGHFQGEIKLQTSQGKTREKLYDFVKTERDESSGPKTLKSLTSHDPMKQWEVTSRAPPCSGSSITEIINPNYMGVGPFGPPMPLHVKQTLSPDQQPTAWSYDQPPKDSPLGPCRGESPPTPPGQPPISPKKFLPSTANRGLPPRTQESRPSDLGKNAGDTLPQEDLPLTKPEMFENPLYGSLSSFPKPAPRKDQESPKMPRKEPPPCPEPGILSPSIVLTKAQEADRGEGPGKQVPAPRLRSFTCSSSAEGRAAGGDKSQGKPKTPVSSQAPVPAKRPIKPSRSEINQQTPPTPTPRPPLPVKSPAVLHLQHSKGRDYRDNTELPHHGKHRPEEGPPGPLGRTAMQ
UniProt Q68E01, whole entry, looked up: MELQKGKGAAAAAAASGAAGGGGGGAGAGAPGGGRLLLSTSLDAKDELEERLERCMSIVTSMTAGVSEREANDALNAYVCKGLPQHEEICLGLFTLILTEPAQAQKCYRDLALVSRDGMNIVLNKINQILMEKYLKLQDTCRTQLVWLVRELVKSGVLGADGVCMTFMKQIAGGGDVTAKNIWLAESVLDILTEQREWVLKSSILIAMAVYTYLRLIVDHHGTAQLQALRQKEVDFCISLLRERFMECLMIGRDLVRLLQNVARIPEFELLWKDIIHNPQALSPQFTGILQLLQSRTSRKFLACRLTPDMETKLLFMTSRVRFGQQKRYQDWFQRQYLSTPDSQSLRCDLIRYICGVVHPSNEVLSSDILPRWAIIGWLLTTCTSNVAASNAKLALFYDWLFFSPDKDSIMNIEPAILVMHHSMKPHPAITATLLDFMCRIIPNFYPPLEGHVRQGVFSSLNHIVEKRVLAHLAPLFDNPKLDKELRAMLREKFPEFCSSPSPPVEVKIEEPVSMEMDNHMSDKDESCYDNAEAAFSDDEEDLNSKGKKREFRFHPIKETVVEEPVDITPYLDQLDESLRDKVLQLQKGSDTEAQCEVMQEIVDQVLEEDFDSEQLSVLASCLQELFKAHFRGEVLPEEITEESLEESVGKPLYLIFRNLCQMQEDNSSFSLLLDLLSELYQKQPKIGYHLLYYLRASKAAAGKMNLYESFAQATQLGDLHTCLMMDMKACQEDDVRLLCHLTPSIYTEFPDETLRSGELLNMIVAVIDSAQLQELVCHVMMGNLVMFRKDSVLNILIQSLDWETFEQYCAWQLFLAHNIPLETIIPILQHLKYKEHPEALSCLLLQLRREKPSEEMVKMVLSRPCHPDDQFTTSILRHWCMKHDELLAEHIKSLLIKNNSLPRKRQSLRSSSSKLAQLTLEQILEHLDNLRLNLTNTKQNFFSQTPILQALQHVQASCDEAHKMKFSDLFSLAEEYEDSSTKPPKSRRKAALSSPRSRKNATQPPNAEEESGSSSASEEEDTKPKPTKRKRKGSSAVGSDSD
UniProt P05107, whole entry, looked up: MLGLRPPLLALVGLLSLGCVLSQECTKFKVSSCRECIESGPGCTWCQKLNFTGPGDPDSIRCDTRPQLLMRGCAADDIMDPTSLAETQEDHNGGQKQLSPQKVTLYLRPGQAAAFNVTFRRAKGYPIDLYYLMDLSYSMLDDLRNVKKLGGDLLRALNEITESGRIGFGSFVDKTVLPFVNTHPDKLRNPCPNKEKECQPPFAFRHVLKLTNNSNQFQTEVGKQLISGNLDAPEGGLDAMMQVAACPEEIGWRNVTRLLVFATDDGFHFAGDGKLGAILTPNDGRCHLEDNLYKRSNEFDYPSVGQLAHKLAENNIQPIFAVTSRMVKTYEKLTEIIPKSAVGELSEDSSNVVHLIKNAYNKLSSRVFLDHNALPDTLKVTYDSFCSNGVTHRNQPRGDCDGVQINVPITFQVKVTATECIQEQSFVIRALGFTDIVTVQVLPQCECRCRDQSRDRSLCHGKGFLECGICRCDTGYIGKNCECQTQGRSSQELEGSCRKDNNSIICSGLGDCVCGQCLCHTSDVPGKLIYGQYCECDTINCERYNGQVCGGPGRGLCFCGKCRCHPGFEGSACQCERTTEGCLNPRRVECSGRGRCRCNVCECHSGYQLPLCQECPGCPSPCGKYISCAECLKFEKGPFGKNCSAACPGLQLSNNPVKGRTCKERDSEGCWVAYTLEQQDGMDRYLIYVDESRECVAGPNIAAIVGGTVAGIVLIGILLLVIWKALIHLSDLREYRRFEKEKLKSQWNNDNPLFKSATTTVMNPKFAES

Compound: CC1Cc2ccccc2N1C(=O)C1CCCN(C1)C(=O)CCl (mixture of isomers) [TRIM25 ligand 11 (diastereomer mixture)]
Test: probe-labelled cysteine peptide fold change vs DMSO (competition) (log2 fold change); higher = less target engagement (more negative = stronger competition)
Details: THP-1, incubation time: 4 h
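Also: competitive chemoproteomic profiling in live THP-1 cells with an iodoacetamide desthiobiotin (IA-DTB) probe, comparing probe-labelled peptide intensities in compound-treated cells against DMSO-treated controls.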

Row | Target | probe-labelled cysteine peptide fold change (10 µM) | probe-labelled cysteine peptide fold change (50 µM)
1 | INTS8_Q75QN2_701_LGQLLAATCK (UniProt Q75QN2) | -0.0314 | 0.054
2 | INTS5_Q6P9B9_485_NHVGELCGETLR (UniProt Q6P9B9) | -0.107 | 0.176
3 | INTS2_Q9H0H0_1186_DTGSMDPDVQLCHCIER (UniProt Q9H0H0) | 0.08 | 0.0623
4 | IRF2BP2_Q7Z5L9_521_LEDTHFVQCPSVPSHK (UniProt Q7Z5L9) | 0.038 | -0.00735
5 | IREB2_P48200_720_CPSFFDK (UniProt P48200) | -0.0311 | -0.15
6 | IPO7_O95373_477_ACWVLHYFCEVK (UniProt O95373) | -0.454 | 0.416
7 | INPP5D_Q92835_217_KLTTLLCK (UniProt Q92835) | 0.0372 | 0.0472
8 | INSR_P06213_1083_GFTCHHVVR (UniProt P06213) | 0.179 | 0.357
9 | INTS12_Q96CB8_182_QMMVASGNQLVECQECHNLYHR (UniProt Q96CB8) | 0.138 | 0.00867
10 | INTS8_Q75QN2_42_KPCPDPAPVQLIVQFLEQASKPSVNEQNQVQPPPDNKR (UniProt Q75QN2) | -0.272 | 0.0474
11 | ITGB1_P05556_516_HCECSTDEVNSEDMDAYCR (UniProt P05556) | -0.118 | -0.0717
12 | INTS4_Q96HW7_44_SAALHIDLCK (UniProt Q96HW7) | 0.139 | -0.0645
13 | IPO5_O00410_1017_EEAVQTFNYLCDLIESNHPIVLGPNNTNLPK (UniProt O00410) | -0.0886 | -0.183
14 | INSR_P06213_899_YGDEELHLCVSR (UniProt P06213) | 0.0425 | -0.0874
15 | INTS3_Q68E01_740_LLCHLTPSIYTEFPDETLR (UniProt Q68E01) | 0.222 | 0.238
16 | ITGAV_P06756_97_CQPIEFDATGNR (UniProt P06756) | 0.0589 | -0.0513
17 | IQGAP1_P46940_781_QIPAITCIQSQWR (UniProt P46940) | 0.167 | 0.19
18 | ITGB2_P05107_481_NCECQTQGR (UniProt P05107) | -0.17 | -0.216
19 | INTS3_Q68E01_959_QNFFSQTPILQALQHVQASCDEAHK (UniProt Q68E01) | -0.118 | -0.143
20 | IPO5_O00410_229_HFADLLPGFLQAVNDSCYQNDDSVLK (UniProt O00410) | -0.169 | 0.049
21 | IPO8_O15397_749_LLEVIILQCK (UniProt O15397) | 0.0753 | 0.0201
22 | ITGB2_P05107_582_TTEGCLNPR (UniProt P05107) | 0.133 | -0.00128
23 | IQSEC2_Q5JU85_821_DVLDCVVDEMDFSSMDLDDALRK (UniProt Q5JU85) | 0.0671 | -0.151
24 | IRGQ_Q8WZA9_328_DWAQVQALLLPDAPLVCVR (UniProt Q8WZA9) | 0.0359 | -0.034
25 | INPP5D_Q92835_819_SSDSDESYGEGCIALR (UniProt Q92835) | -0.0674 | -0.00858
26 | IPO4_Q8TEX9_95_ETEHCVSLSLAQLSATIFR (UniProt Q8TEX9) | -0.000253 | 0.0487

Whole records, quoted from the list. Order of values: probe-labelled cysteine peptide fold change (10 µM)	probe-labelled cysteine peptide fold change (50 µM)
INTS2_Q9H0H0_1186_DTGSMDPDVQLCHCIER (UniProt Q9H0H0) as listed: 0.08	0.0623
IPO7_O95373_477_ACWVLHYFCEVK (UniProt O95373) as listed: -0.454	0.416
